Binding data for two molecules are collected here from patent publication US20250064853A1 (GYALA THERAPEUTICS SOCIEDAD LIMITADA, published 2025).

These are yes or no findings as the source states them, for the method shown. Some entries that bind do so weakly or less than the wild type.

The target of test [1] is T1, Human CD84 produced by mammalian cells (CD84 antigen) (human) (UniProt Q9UIB8).
T1 sequence: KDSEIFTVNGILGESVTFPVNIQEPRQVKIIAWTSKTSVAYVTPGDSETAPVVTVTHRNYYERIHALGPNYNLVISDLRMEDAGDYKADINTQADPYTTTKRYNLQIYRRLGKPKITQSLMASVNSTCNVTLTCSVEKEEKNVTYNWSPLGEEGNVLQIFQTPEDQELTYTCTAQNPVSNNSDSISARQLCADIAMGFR
Description: phage display screening on CD84 antigen.

The target in test [2] is T1, Human CD84 produced by mammalian cells (CD84 antigen) (human). Description: monoclonal phage ELISA on coated CD84 antigen. (In an ELISA, binding on a coated surface is turned into a signal by an enzyme label.)

B1: R3-H3 (scFv)
scFv: EVQLVESGGGLVQPGGSLRLSCAASGFTFSDNAMSWVRQAPGKGLEWVSAISGTGRTTYYADSVKGRFTISRDNSKNTLYLQMNSLRAEDTAVYYCAKWDCSDGRCYWAYWGQGTLVTVSSGGGGSGGGGSGGGGSGGGGASEIVLTQSPLSLPVTLGQPASISCRSSQSLVYSDGDTYLNWFQQRPGQSPRRLIYKVSNRDSGVPDRFSGSGSGTDFTLKISRVEAEDVGVYYCMQGTHWPPNTFGQGTRLEIK
Consider B1, for which the binding entry in test [1] and in test [2] was “binds” throughout.

B2: R3-G7 (scFv)
scFv: QVQLVESGGGVVQPGRSLRLSCTASGFTFSSYPMHWVRQAPGKGLEWVAAISYHGRNKFYADSVKGRFTISRDDLRSTLYLQMNNLKADDTAVYSCARDRDATPGGTGVGNHGMAVWGQGTTVTVSSGGGGSGGGGSGGGGSGGGGASEIVLTQSPLSLPVTPGEPASISCKSSQSLLHSSGYNYLDWYLQKPGQSPQLLIHMGSNRASGVPARFSGSGSGTDFTLRISRVEAEDVGVYYCMQGLQTPPTFGGGTKLEIK
Turning to B2, the binding entry in test [1] and in test [2] was “binds” in each case.
